# Assay results from article PMC9800739, “Epigenetic drugs in somatostatin type 2 receptor radionuclide theranostics and radiation transcriptomics in mouse pheochromocytoma models” (Theranostics, 2023).
# System: MPC and MTT cells
# Test: Viability assay (colorimetric tetrazolium dye)
# Assay type: cell-based, mouse
# Conditions: both cell lines
row,SMILES,hill slope of dose-response curve (viability)
1,"CCCC(CCC)C(=O)O [VPA, valproic acid]",-1.2 ± 0.3
2,"Nc1ncn([C@H]2C[C@H](O)[C@@H](CO)O2)c(=O)n1 [DAC, 5-Aza-2'-deoxycytidine]",-0.4 ± 0.02
